Measurements as given in PMC6300691, “Enhancement of Heat Stability and Kinetic Parameters of the Maize Endosperm ADP-Glucose Pyrophosphorylase by Mutagenesis of Amino Acids in the Small Subunit With High B Factors” (Frontiers in Plant Science, 2018).

Key:
maize endosperm AGPase [1] = experiment: Pi inhibition in the presence of 3-PGA; type: biochemical; settings: P-MT partial mixed type, L-MT linear mixed type
Description: (§1) (2) v=Vm(S/Ks+(βSI)/(αKiKs))/(1+S/Ks+I/Ki+SI/αKiKs)P-MT
(§2) (3) v=Vm(S/Ks)/(1+S/Ks+I/Ki+SI/αKiKs)L-MT

maize endosperm AGPase [2] = experiment: Pi inhibition in the absence of 3-PGA; type: biochemical; settings: P-MT partial mixed type
Description: as §1, §2

Measured: Pattern of Pi inhibition

B1: wt: wild type maize endosperm AGPase: SH2 large subunit with BT2 small subunit, expressed in E. coli (protein, UniProt P55241 46-516; P55241 46-516, looked up)
Glucose-1-phosphate … 1: FGGRVAATTQCILTSDACPETLHSQTQSSRKNYADANRVSAIILGGGTGSQLFPLTSTRATPAVPVGGCYRLIDIPMSNCFNSGINKIFVMSQFNSTSLNRHIHRTYLEGGINFADGSVQVLAATQMPEEPAGWFQGTADSIRKFIWVLEDYYSHKSIDNIVILSGDQLYRMNYMELVQKHVEDDADITISCAPVDESRASKNGLVKIDHTGRVLQFFEKPKGADLNSMRVETNFLSYAIDDAQKYPYLASMGIYVFKKDALLDLLKSKYTQLHDFGSEILPRAVLDHSVQACIFTGYWEDVGTIKSFFDANLALTEQPSKFDFYDPKTPFFTAPRCLPPTQLDKCKMKYAFISDGCLLRECNIEHSVIGVCSRVSSGCELKDSVMMGADTYETEEEASKLLLAGKVPVGIGRNTKIRNCIIDMNARIGKNVVITNSKGIQEADHPEEGYYIRSGIVVILKNATINDGSVI
Glucose-1-phosphate … 2: B1 Glucose-1-phosphate … 1
modifications: expressed in E. coli
P-MT: maize endosperm AGPase [1]; varied substrate ATP | maize endosperm AGPase [1]; varied substrate G-1-P | maize endosperm AGPase [2]; varied substrate ATP | maize endosperm AGPase [2]; varied substrate G-1-P
